Drawing on PMC6368580, this text covers binding for one molecule.

Chains of the proteins cited; added tags and fusions are not shown. Lines headed by an entry give the natural chain unless they say otherwise; changes in a name come on top.
UniProt Q96RK0: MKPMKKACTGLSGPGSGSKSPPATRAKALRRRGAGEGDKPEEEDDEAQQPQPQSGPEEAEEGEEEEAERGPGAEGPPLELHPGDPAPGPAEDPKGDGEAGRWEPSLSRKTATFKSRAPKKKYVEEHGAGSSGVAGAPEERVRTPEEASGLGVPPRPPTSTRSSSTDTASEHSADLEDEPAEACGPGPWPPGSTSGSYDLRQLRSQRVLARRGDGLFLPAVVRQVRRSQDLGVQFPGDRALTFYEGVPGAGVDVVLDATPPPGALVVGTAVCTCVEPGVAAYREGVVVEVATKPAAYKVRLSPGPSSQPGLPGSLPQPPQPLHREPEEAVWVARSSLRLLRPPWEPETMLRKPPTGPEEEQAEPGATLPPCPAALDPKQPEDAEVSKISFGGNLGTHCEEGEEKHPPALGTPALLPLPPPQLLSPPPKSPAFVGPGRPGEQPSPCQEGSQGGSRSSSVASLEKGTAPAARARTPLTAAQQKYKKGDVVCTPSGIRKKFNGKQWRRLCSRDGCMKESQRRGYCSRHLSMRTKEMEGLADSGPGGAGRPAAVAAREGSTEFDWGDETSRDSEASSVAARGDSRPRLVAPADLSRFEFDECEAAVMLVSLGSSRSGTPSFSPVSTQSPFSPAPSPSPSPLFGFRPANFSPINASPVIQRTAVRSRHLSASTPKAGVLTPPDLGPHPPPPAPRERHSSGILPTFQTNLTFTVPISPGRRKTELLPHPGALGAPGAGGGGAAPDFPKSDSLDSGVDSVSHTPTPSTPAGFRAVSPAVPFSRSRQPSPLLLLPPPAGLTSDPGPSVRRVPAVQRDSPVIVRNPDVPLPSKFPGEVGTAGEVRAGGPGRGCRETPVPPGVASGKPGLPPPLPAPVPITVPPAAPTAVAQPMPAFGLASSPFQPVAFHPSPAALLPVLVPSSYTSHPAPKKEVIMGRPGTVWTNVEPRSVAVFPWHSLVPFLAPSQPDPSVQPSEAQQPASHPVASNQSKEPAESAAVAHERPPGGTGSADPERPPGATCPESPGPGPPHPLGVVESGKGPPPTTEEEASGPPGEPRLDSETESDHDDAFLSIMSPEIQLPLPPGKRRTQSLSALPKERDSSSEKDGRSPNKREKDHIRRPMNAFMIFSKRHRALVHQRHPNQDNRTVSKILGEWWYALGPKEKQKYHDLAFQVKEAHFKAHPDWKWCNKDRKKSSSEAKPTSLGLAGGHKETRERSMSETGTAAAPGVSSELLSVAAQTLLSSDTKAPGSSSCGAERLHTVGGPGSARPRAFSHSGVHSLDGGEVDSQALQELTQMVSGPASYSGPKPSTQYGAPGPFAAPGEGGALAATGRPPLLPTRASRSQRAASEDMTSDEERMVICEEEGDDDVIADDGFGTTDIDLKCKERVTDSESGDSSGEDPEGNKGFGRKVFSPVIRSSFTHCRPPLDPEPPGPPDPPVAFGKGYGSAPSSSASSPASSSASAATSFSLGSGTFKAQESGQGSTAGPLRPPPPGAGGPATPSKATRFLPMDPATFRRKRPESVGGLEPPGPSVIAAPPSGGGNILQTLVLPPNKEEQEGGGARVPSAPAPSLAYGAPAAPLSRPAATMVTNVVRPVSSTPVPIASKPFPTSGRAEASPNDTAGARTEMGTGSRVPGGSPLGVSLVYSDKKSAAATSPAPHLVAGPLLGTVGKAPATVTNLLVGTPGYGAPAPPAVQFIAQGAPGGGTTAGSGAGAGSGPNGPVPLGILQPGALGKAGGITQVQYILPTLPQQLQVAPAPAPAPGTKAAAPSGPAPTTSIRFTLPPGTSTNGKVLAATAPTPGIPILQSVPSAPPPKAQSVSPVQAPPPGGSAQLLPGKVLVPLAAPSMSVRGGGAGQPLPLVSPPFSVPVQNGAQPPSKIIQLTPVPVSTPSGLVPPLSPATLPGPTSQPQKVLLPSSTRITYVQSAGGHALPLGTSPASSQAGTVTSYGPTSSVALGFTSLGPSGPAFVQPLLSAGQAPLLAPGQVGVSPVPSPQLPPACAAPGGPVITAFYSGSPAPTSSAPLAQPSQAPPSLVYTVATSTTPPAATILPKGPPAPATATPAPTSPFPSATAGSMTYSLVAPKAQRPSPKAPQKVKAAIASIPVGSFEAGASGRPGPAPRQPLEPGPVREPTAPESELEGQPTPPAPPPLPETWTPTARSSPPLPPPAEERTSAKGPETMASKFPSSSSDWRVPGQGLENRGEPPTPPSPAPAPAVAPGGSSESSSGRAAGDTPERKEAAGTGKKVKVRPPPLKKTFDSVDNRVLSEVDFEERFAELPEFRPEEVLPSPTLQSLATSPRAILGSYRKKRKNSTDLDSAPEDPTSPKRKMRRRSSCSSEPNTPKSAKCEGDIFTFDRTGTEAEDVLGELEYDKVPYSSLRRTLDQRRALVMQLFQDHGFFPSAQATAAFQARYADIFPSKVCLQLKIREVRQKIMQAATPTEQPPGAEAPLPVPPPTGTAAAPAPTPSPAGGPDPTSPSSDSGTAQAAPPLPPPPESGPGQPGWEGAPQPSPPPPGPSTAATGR

These are yes or no findings as the source states them, for the method shown. In cells and extracts the contact can be indirect.

The target in the assay is HA-CIC(ΔEBI), CIC with the ERK-binding interface deleted (UniProt Q96RK0). Nature of the assay: co-IP; U87 cells transfected with indicated plasmids, IP with anti-HA antibody; EBC lysis buffer, NETN washes.

B1: PJA1 in transfected U87 cells (enzyme, UniProt Q8NG27 1-643)
chain: MGQESSKPVWPNPTGGYQSNTGRRYGRRHAYVSFRPPTSQRERIASQRKTNSEVPMHRSAPSQTTKRSRSPFSTTRRSWDDSESSGTNLNIDNEDYSRYPPREYRASGSRRGMAYGHIDSYGADDSEEEGAGPVERPPVRGKTGKFKDDKLYDPEKGARSLAGPPPHFSSFSRDVREERDKLDPVPAARCSASRADFLPQSSVASQSSSEGKLATKGDSSERERREQNLPARPSRAPVSICGGGENTSKSAEEPVVRPKIRNLASPNCVKPKIFFDTDDDDDMPHSTSRWRDTANDNEGHSDGLARRGRGESSSGYPEPKYPEDKREARSDQVKPEKVPRRRRTMADPDFWTHSDDYYKYCDEDSDSDKEWIAALRRKYRSREQTLSSSGESWETLPGKEEREPPQAKVSASTGTSPGPGASASAGAGAGASAGSNGSNYLEEVREPSLQEEQASLEEGEIPWLQYHENDSSSEGDNDSGHELMQPGVFMLDGNNNLEDDSSVSEDLEVDWSLFDGFADGLGVAEAISYVDPQFLTYMALEERLAQAMETALAHLESLAVDVEVANPPASKESIDALPEILVTEDHGAVGQEMCCPICCSEYVKGEVATELPCHHYFHKPCVSIWLQKSGTCPVCRCMFPPPL
On to B1, for which the binding entry is given as “no binding”.
